Patent US20200340060A1, “COMPOSITIONS AND METHODS FOR IDENTIFYING AND TREATING LIVER DISEASES AND MONITORING TREATMENT OUTCOMES” (Gilead Sciences, Inc., priority 2017, published 2020)

Assay: SOMAscan serum proteomics in NASH subjects treated with selonsertib/simtuzumab, baseline and week 24
Parameters: species or system human
Details: serum protein marker level, week 24 vs baseline
[1] = lobular inflammation non-improvers
[2] = CRN fibrosis stage non-improvers

B1: PCSK7 (protein, UniProt Q16549 142-785, looked up)
Proprotein convertase …: SVHFNDPKYPQQWHLNNRRSPGRDINVTGVWERNVTGRGVTVVVVDDGVEHTIQDIAPNYSPEGSYDLNSNDPDPMPHPDVENGNHHGTRCAGEIAAVPNNSFCAVGVAYGSRIAGIRVLDGPLTDSMEAVAFNKHYQINDIYSCSWGPDDDGKTVDGPHQLGKAALQHGVIAGRQGFGSIFVVASGNGGQHNDNCNYDGYANSIYTVTIGAVDEEGRMPFYAEECASMLAVTFSGGDKMLRSIVTTDWDLQKGTGCTEGHTGTSAAAPLAAGMIALMLQVRPCLTWRDVQHIIVFTATRYEDRRAEWVTNEAGFSHSHQHGFGLLNAWRLVNAAKIWTSVPYLASYVSPVLKENKAIPQSPRSLEVLWNVSRMDLEMSGLKTLEHVAVTVSITHPRRGSLELKLFCPSGMMSLIGAPRSMDSDPNGFNDWTFSTVRCWGERARGTYRLVIRDVGDESFQVGILRQWQLTLYGSVWSAVDIRDRQRLLESAMSGKYLHDDFALPCPPGLKIPEEDGYTITPNTLKTLVLVGCFTVFWTVYYMLEVYLSQRNVASNQVCRSGPCHWPHRSRKAKEEGTELESVPLCSSKDPDEVETESRGPPTTSDLLAPDLLEQGDWSLSQNKSALDCPHQHLDVPHGKEEQIC
For B1, the “Median percent CHG at W24 in improver” value (steatosis improvers) was −3.57% and the “Median percent CHG at W24 in Non-improver” value (steatosis non-improvers) was 7.995%.

B2: FCG3B (protein, UniProt O75015 17-200, looked up)
Low affinity immunoglobulin …: GMRTEDLPKAVVFLEPQWYSVLEKDSVTLKCQGAYSPEDNSTQWFHNENLISSQASSYFIDAATVNDSGEYRCQTNLSTLSDPVQLEVHIGWLLLQAPRWVFKEEDPIHLRCHSWKNTALHKVTYLQNGKDRKYFHHNSDFHIPKATLKDSGSYFCRGLVGSKNVSSETVNITITQGLAVSTIS
With B2 the “Median percent CHG at W24 in improver” value (lobular inflammation improvers) was −14.29% and the “Median percent CHG at W24 in Non-improver” value [1] was −1.44%.

B3: CNTN2 (protein, UniProt Q02246 31-1012, looked up)
Contactin-2: SQTTFGPVFEDQPLSVLFPEESTEEQVLLACRARASPPATYRWKMNGTEMKLEPGSRHQLVGGNLVIMNPTKAQDAGVYQCLASNPVGTVVSREAILRFGFLQEFSKEERDPVKAHEGWGVMLPCNPPAHYPGLSYRWLLNEFPNFIPTDGRHFVSQTTGNLYIARTNASDLGNYSCLATSHMDFSTKSVFSKFAQLNLAAEDTRLFAPSIKARFPAETYALVGQQVTLECFAFGNPVPRIKWRKVDGSLSPQWTTAEPTLQIPSVSFEDEGTYECEAENSKGRDTVQGRIIVQAQPEWLKVISDTEADIGSNLRWGCAAAGKPRPTVRWLRNGEPLASQNRVEVLAGDLRFSKLSLEDSGMYQCVAENKHGTIYASAELAVQALAPDFRLNPVRRLIPAARGGEILIPCQPRAAPKAVVLWSKGTEILVNSSRVTVTPDGTLIIRNISRSDEGKYTCFAENFMGKANSTGILSVRDATKITLAPSSADINLGDNLTLQCHASHDPTMDLTFTWTLDDFPIDFDKPGGHYRRTNVKETIGDLTILNAQLRHGGKYTCMAQTVVDSASKEATVLVRGPPGPPGGVVVRDIGDTTIQLSWSRGFDNHSPIAKYTLQARTPPAGKWKQVRTNPANIEGNAETAQVLGLTPWMDYEFRVIASNILGTGEPSGPSSKIRTREAAPSVAPSGLSGGGGAPGELIVNWTPMSREYQNGDGFGYLLSFRRQGSTHWQTARVPGADAQYFVYSNESVRPYTPFEVKIRSYNRRGDGPESLTALVYSAEEEPRVAPTKVWAKGVSSSEMNVTWEPVQQDMNGILLGYEIRYWKAGDKEAAADRVRTAGLDTSARVSGLHPNTKYHVTVRAYNRAGTGPASPSANATTMKPPPRRPPGNISWTFSSSSLSIKWDPVVPFRNESAVTGYKMLYQNDLHLTPTLHLTGKNWIEIPVPEDIGHALVQIRTTGPGGDGIPAEVHIVRNGGTSMMVEN
With B3 the “Median percent CHG at W24 in improver” value (steatosis improvers) was −6.28% and the “Median percent CHG at W24 in Non-improver” value (steatosis non-improvers) was 3.91%.

B4: KYNU (protein, UniProt Q16719 1-465, looked up)
Kynureninase: MEPSSLELPADTVQRIAAELKCHPTDERVALHLDEEDKLRHFRECFYIPKIQDLPPVDLSLVNKDENAIYFLGNSLGLQPKMVKTYLEEELDKWAKIAAYGHEVGKRPWITGDESIVGLMKDIVGANEKEIALMNALTVNLHLLMLSFFKPTPKRYKILLEAKAFPSDHYAIESQLQLHGLNIEESMRMIKPREGEETLRIEDILEVIEKEGDSIAVILFSGVHFYTGQHFNIPAITKAGQAKGCYVGFDLAHAVGNVELYLHDWGVDFACWCSYKYLNAGAGGIAGAFIHEKHAHTIKPALVGWFGHELSTRFKMDNKLQLIPGVCGFRISNPPILLVCSLHASLEIFKQATMKALRKKSVLLTGYLEYLIKHNYGKDKAATKKPVVNIITPSHVEERGCQLTITFSVPNKDVFQELEKRGVVCDKRNPNGIRVAPVPLYNSFHDVYKFTNLLTSILDSAETKN
For B4, the “Median percent CHG at W24 in improver” value (CRN fibrosis stage improvers) was −26.22%, the “Median percent CHG at W24 in Non-improver” value [2] was −8.6% and the “Median percent CHG at W24 in improver” value (steatosis improvers) was −30.97%. The “Median percent CHG at W24 in Non-improver” value (steatosis non-improvers) was −6.785%.

B5: ERAB (protein, UniProt Q99714 2-261, looked up)
3-hydroxyacyl-CoA …: AAACRSVKGLVAVITGGASGLGLATAERLVGQGASAVLLDLPNSGGEAQAKKLGNNCVFAPADVTSEKDVQTALALAKGKFGRVDVAVNCAGIAVASKTYNLKKGQTHTLEDFQRVLDVNLMGTFNVIRLVAGEMGQNEPDQGGQRGVIINTASVAAFEGQVGQAAYSASKGGIVGMTLPIARDLAPIGIRVMTIAPGLFGTPLLTSLPEKVCNFLASQVPFPSRLGDPAEYAHLVQAIIENPFLNGEVIRLDGAIRMQP
With B5 the “Median percent CHG at W24 in improver” value (lobular inflammation improvers) was −26.665% and the “Median percent CHG at W24 in Non-improver” value [1] was 2.01%.

B6: sTie-2 (protein, UniProt Q02763 23-748, looked up)
extracellular domain: AMDLILINSLPLVSDAETSLTCIASGWRPHEPITIGRDFEALMNQHQDPLEVTQDVTREWAKKVVWKREKASKINGAYFCEGRVRGEAIRIRTMKMRQQASFLPATLTMTVDKGDNVNISFKKVLIKEEDAVIYKNGSFIHSVPRHEVPDILEVHLPHAQPQDAGVYSARYIGGNLFTSAFTRLIVRRCEAQKWGPECNHLCTACMNNGVCHEDTGECICPPGFMGRTCEKACELHTFGRTCKERCSGQEGCKSYVFCLPDPYGCSCATGWKGLQCNEACHPGFYGPDCKLRCSCNNGEMCDRFQGCLCSPGWQGLQCEREGIQRMTPKIVDLPDHIEVNSGKFNPICKASGWPLPTNEEMTLVKPDGTVLHPKDFNHTDHFSVAIFTIHRILPPDSGVWVCSVNTVAGMVEKPFNISVKVLPKPLNAPNVIDTGHNFAVINISSEPYFGDGPIKSKKLLYKPVNHYEAWQHIQVTNEIVTLNYLEPRTEYELCVQLVRRGEGGEGHPGPVRRFTTASIGLPPPRGLNLLPKSQTTLNLTWQPIFPSSEDDFYVEVERRSVQKSDQQNIKVPGNLTSVLLNNLHPREQYVVRARVNTKAQGEWSEDLTAWTLSDILPPQPENIKISNITHSSAVISWTILDGYSISSITIRYKVQGKNEDQHVDVKIKNATITQYQLKGLEPETAYQVDIFAENNIGSSNPAFSHELVTLPESQAPADLGGGKMLL
modifications: extracellular domain
With B6 the “Median percent CHG at W24 in improver” value (steatosis improvers) was −8.34% and the “Median percent CHG at W24 in Non-improver” value (steatosis non-improvers) was −0.925%.

B7: AK1A1 (protein, UniProt P14550 2-325, looked up)
Aldo-keto reductase family 1 …: AASCVLLHTGQKMPLIGLGTWKSEPGQVKAAVKYALSVGYRHIDCAAIYGNEPEIGEALKEDVGPGKAVPREELFVTSKLWNTKHHPEDVEPALRKTLADLQLEYLDLYLMHWPYAFERGDNPFPKNADGTICYDSTHYKETWKALEALVAKGLVQALGLSNFNSRQIDDILSVASVRPAVLQVECHPYLAQNELIAHCQARGLEVTAYSPLGSSDRAWRDPDEPVLLEEPVVLALAEKYGRSPAQILLRWQVQRKVICIPKSITPSRILQNIKVFDFTFSPEEMKQLNALNKNWRYIVPMLTVDGKRVPRDAGHPLYPFNDPY
With B7 the “Median percent CHG at W24 in improver” value (steatosis improvers) was −28.48% and the “Median percent CHG at W24 in Non-improver” value (steatosis non-improvers) was −8.95%.

B8: FLRT3 (protein, UniProt Q9NZU0 29-649, looked up)
Leucine-rich repeat …: KSCPSVCRCDAGFIYCNDRFLTSIPTGIPEDATTLYLQNNQINNAGIPSDLKNLLKVERIYLYHNSLDEFPTNLPKYVKELHLQENNIRTITYDSLSKIPYLEELHLDDNSVSAVSIEEGAFRDSNYLRLLFLSRNHLSTIPWGLPRTIEELRLDDNRISTISSPSLQGLTSLKRLVLDGNLLNNHGLGDKVFFNLVNLTELSLVRNSLTAAPVNLPGTNLRKLYLQDNHINRVPPNAFSYLRQLYRLDMSNNNLSNLPQGIFDDLDNITQLILRNNPWYCGCKMKWVRDWLQSLPVKVNVRGLMCQAPEKVRGMAIKDLNAELFDCKDSGIVSTIQITTAIPNTVYPAQGQWPAPVTKQPDIKNPKLTKDHQTTGSPSRKTITITVKSVTSDTIHISWKLALPMTALRLSWLKLGHSPAFGSITETIVTGERSEYLVTALEPDSPYKVCMVPMETSNLYLFDETPVCIETETAPLRMYNPTTTLNREQEKEPYKNPNLPLAAIIGGAVALVTIALLALVCWYVHRNGSLFSRNCAYSKGRRRKDDYAEAGTKKDNSILEIRETSFQMLPISNEPISKEEFVIHTIFPPNGMNLYKNNHSESSSNRSYRDSGIPDSDHSHS
With B8 the “Median percent CHG at W24 in improver” value (steatosis improvers) was −10.72% and the “Median percent CHG at W24 in Non-improver” value (steatosis non-improvers) was 3.09%.

B9: Nectin-like protein 2 (protein, UniProt Q8N126 25-398, looked up)
Cell adhesion molecule 3: NLSQDDSQPWTSDETVVAGGTVVLKCQVKDHEDSSLQWSNPAQQTLYFGEKRALRDNRIQLVTSTPHELSISISNVALADEGEYTCSIFTMPVRTAKSLVTVLGIPQKPIITGYKSSLREKDTATLNCQSSGSKPAARLTWRKGDQELHGEPTRIQEDPNGKTFTVSSSVTFQVTREDDGASIVCSVNHESLKGADRSTSQRIEVLYTPTAMIRPDPPHPREGQKLLLHCEGRGNPVPQQYLWEKEGSVPPLKMTQESALIFPFLNKSDSGTYGCTATSNMGSYKAYYTLNVNDPSPVPSSSSTYHAIIGGIVAFIVFLLLIMLIFLGHYLIRHKGTYLTHEAKGSDDAPDADTAIINAEGGQSGGDDKKEYFI
In the case of B9, the “Median percent CHG at W24 in improver” value (steatosis improvers) is reported as −7.93% and the “Median percent CHG at W24 in Non-improver” value (steatosis non-improvers) is reported as 7.925%.

B10: CD30 Ligand (protein, UniProt P32971 1-234, looked up)
Tumor necrosis factor ligand …: MDPGLQQALNGMAPPGDTAMHVPAGSVASHLGTTSRSYFYLTTATLALCLVFTVATIMVLVVQRTDSIPNSPDNVPLKGGNCSEDLLCILKRAPFKKSWAYLQVAKHLNKTKLSWNKDGILHGVRYQDGNLVIQFPGLYFIICQLQFLVQCPNNSVDLKLELLINKHIKKQALVTVCESGMQTKHVYQNLSQFLLDYLQVNTTISVNVDTFQYIDTSTFPLENVLSIFLYSNSD
In the case of B10, the “Median percent CHG at W24 in improver” value (CRN fibrosis stage improvers) is reported as −4.89%, the “Median percent CHG at W24 in Non-improver” value [2] is reported as −0.44% and the “Median percent CHG at W24 in improver” value (steatosis improvers) is reported as −9.18%. The “Median percent CHG at W24 in Non-improver” value (steatosis non-improvers) was 0.81%.

B11: IL24 (protein, UniProt Q13007 52-206, looked up)
Interleukin-24: QEFHFGPCQVKGVVPQKLWEAFWAVKDTMQAQDNITSARLLQQEVLQNVSDAESCYLVHTLLEFYLKTVFKNYHNRTVEVRTLKSFSTLANNFVLIVSQLQPSQENEMFSIRDSAHRRFLLFRRAFKQLDVEAALTKALGEVDILLTWMQKFYKL
For B11, the “Median percent CHG at W24 in improver” value (lobular inflammation improvers) was −3.985% and the “Median percent CHG at W24 in Non-improver” value [1] was 2.03%.
